Test results published in patent US20120183524A1, “MOLECULAR TARGETS FOR TREATMENT OF INFLAMMATION” (University Of Rochester, priority 2007, published 2012).
No constants are given. Whether binding was seen depends on the method and setting. Binding seen in cells or lysates may run through a third protein. Some results given as binding are weak or reduced against the parent protein; the word gives no strength.

Assays:
[1] = target: T1, p52 (NF-kappaB p52; endogenous, mouse lung tissue) (mouse) (UniProt Q9WTK5); test: co-immunoprecipitation from mouse lung (discussion of own results)
T1 sequence (looked up): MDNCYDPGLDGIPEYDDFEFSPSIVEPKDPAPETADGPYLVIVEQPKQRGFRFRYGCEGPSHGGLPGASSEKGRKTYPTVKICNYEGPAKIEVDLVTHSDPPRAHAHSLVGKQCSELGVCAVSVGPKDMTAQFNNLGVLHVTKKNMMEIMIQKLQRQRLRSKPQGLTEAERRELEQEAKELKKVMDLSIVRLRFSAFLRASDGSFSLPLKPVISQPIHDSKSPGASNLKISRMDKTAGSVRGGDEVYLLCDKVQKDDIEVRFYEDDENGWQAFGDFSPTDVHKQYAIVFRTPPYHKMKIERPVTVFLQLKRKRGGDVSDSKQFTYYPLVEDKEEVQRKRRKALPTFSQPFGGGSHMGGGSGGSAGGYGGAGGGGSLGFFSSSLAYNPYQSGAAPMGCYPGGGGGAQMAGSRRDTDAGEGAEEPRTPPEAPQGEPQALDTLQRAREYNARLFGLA

[2] = target: T1, p52 (NF-kappaB p52; endogenous, mouse lung tissue) (mouse); test: co-immunoprecipitation from mouse whole lung tissue homogenate, Western blot
[3] = target: T1, p52 (NF-kappaB p52; endogenous, mouse lung tissue) (mouse); test: co-immunoprecipitation from mouse lung, densitometry of blots (FIG. 2B)

Measured: binding

B1: RelB (endogenous, mouse lung tissue) (protein, UniProt Q04863 1-558, looked up)
chain: MPSRRAARESAPELGALGSSDLSSLSLTVSRTTDELEIIDEYIKENGFGLDGTQLSEMPRLVPRGPASLSSVTLGPAAPPPPATPSWSCTLGRLVSPGPCPRPYLVITEQPKQRGMRFRYECEGRSAGSILGESSTEASKTLPAIELRDCGGLREVEVTACLVWKDWPHRVHPHSLVGKDCTDGVCRVRLRPHVSPRHSFNNLGIQCVRKKEIEAAIERKIQLGIDPYNAGSLKNHQEVDMNVVRICFQASYRDQQGHLHRMDPILSEPVYDKKSTNTSELRICRINKESGPCTGGEELYLLCDKVQKEDISVVFSTASWEGRADFSQADVHRQIAIVFKTPPYEDLEISEPVTVNVFLQRLTDGVCSEPLPFTYLPRDHDSYGVDKKRKRGLPDVLGELSSSDPHGIESKRRKKKPVFLDHFLPGHSSGLFLPPSALQPADSDFFPASISLPGLEPPGGPDLLDDGFAYDPSAPTLFTMLDLLPPAPPLASAVVGSGGAGATVVESSGPEPLSLDSFAAPGPGDVGTASLVGSNMFPNQYREAAFGGGLLSPGPEAT
binds: all assays above
